# The campaign covered roughly 320,000 compounds. About 2,100 (0.66%) were called active. Inconclusive means that the source gave no clear call. Such entries were picked first, then a sample of the others. Calls come from the whole dose curve; as a rule, active = well fitted inhibition curve with a large enough effect in the signal ratio, with a control signal flat (not every such curve was filed as active); inconclusive = small, poorly fitted or top-dose-only effect, or effect the other way, or a change in a side signal; inactive = flat fitted curve, though single readings scatter; the % refers to the signal ratio. Potencies beside an inconclusive call are fits to weak or partial responses and may not hold up.
# Experiment: qHTS Assay for Lipid Storage Modulators in Drosophila S3 Cells
# Settings: BODIPY lipid droplet fluorescence, 18-24 h, cells fed with added oleic acid; lipid storage change, negative = inhibition: at 46.1 µM (top of the series) unless noted
# Procedure, shortened: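 Laser-scanning cytometry quantifies lipid droplet accumulation (500–530 nm total intensity; droplet/cell object ratio) in oleic acid-fed (400 uM added) Drosophila S3 cells treated with a concentration series. 20 uM Triacsin C defined 100% inhibition.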
# % is set by controls: 0 for no effect and ±100 for the full control effect; potency is the fitted concentration of half-maximal effect.
Structure (SMILES),"lipid storage change, negative = inhibition",Potency,outcome
COc1cc(C(C)=O)ccc1OCC(O)CNCC1(N2CCCCC2)CCCCC1 (stereo not given),inconclusive: 49.2%,–,–
Cc1cc(N2C(=O)C3C4CC(c5ccccc5)C(C4)C3C2=O)no1 (stereo not given),–,"inconclusive: 6.51 µM [falling, single point]",–
CC(C)(C)c1ccc(C(=O)O)c(C(=O)c2ccc(C(=O)O)cc2)c1,–,"inconclusive: 9.2 µM [falling, partial curve, poor fit]",–
O=C(CC(=O)N/N=C\c1ccccc1)NCCc1ccccc1,inconclusive: 11.9%,–,–
COC(=O)c1sc(NC(=O)c2cc(-c3ccccc3)nc3ccccc23)c(C#N)c1C,inconclusive: -11%,–,–
Cc1[nH]c2ccc(C(=O)N3CCCCC3)cc2c1C,inconclusive: 8.39%,–,–
Cc1c(C(=O)NCCSCc2c(Cl)cccc2Cl)cccc1[N+](=O)[O-],inconclusive: -0.213%,–,–
Cc1c(C(=O)O)[nH]c2c1C(=O)CC(c1ccc(Cl)cc1)C2 (stereo not given),inconclusive: 15.4%,–,–
COc1ccc(F)c(-c2nc(CN3CCC(c4ccccc4)CC3)c(C)o2)c1,–,"inconclusive: 6.51 µM [cytotoxic, single point]",–
O=C(CN1CCN(c2ccccn2)CC1)Nc1ccc(Br)cc1,inconclusive: 19.1%,–,–
CCc1ccc(NC(=S)N(CCN2CCCCC2)Cc2ccco2)cc1,inconclusive: 54.1%,–,–
O=C(Nc1nc2ccc(Oc3ccccc3)cc2s1)c1cc([N+](=O)[O-])ccc1N1CCOCC1,inconclusive: -19.8%,–,–
CC(C1CC2CCC1C2)n1c(-c2ccco2)n[nH]c1=S (stereo not given),–,"inconclusive: 2.31 µM [rising, partial curve]",–
Cc1ccc(C(=O)OC2=CC(=O)CC(C)(C)C2)cc1,–,"inconclusive: 2.59 µM [falling, partial curve]",–
COc1ccc(-c2nc3ncccc3o2)cc1NC(=O)c1ccco1,inconclusive: 5.61%,–,–
O=CC1=C(N2CCOCC2)/C(=C/c2ccc(Cl)cc2)CC1,–,"inconclusive: 6.51 µM [cytotoxic, single point]",–
COc1cc(CNn2cnnc2)ccc1OCC(=O)NC(C)(C)C,inconclusive: -7.62%,–,–
Nc1cccc(-n2nncc2-c2ccc(Cl)cc2)c1,inconclusive: 11%,–,–
COc1ccc(CCNC(=O)c2cccc(S(=O)(=O)N3CCCCCC3)c2)cc1,inconclusive: 2.34%,–,–
[O-][n+]1c2ccccc2c2n1CCCN=C2c1ccc(Cl)cc1,inconclusive: -45.8%,–,–
COC(=O)c1ccc(NC(=O)Nc2ccc3c(c2)OCO3)cc1,inconclusive: 18.1%,–,–
CC(=O)N1CCCc2cc(S(=O)(=O)CCC(=O)N3CCN(c4ccccc4)CC3)ccc21,inconclusive: 19.1%,–,–
O=C(Nc1nc2cc3c(cc2s1)OCCO3)c1ccco1,inconclusive: -12.2%,–,–
CC(C)OC(=O)CSc1ncnc2c1cnn2-c1ccccc1,–,"inconclusive: 25.9 µM [rising, partial curve, poor fit]",–
NC(=O)c1ccsc1NC(=O)c1ccc2c(c1)CCCC2,inconclusive: 26.2%,–,–
CN(Cc1ccccc1)S(=O)(=O)c1ccc(NC(=O)C2CCCO2)cc1 (stereo not given),inconclusive: 44.9%,–,–
COc1ccc(C)cc1S(=O)(=O)N1CCCC(C(=O)NCc2ccccn2)C1 (stereo not given),inconclusive: -15.1%,–,–

Structure (SMILES),"lipid storage change, negative = inhibition",Potency,outcome
CCCn1c(N)c(C(=O)CN(C)CC(=O)Nc2cccc(F)c2)c(=O)[nH]c1=O,–,"inconclusive: 0.731 µM [falling, partial curve]",–
COc1ccc(C2(c3ccc(OC)cc3)NC(=O)N(CC(=O)NCC(C)c3ccccc3)C2=O)cc1 (stereo not given),inconclusive: -17.4%,–,–
Cn1c(=O)cc(OCC(=O)N2CCN(c3cccc(C(F)(F)F)c3)CC2)c2ccccc21,inconclusive: 2.61%,–,–
COc1ccc(CC(=O)N2CCN=C2SC)cc1,inconclusive: 6.5%,–,–
CC(C)(C)c1nc[nH]c(=O)c1Br,inconclusive: -15.8%,–,–
CCC(C)[C@H](NC(=O)C1CC(=O)N(c2ccc(OC)cc2)C1)C(=O)NC1CCCC1 (stereo not given in full),–,"inconclusive: 1.3 µM [activator, full curve, poor fit]",–
COc1ccc(CCNC(=O)c2ccc(OC)c(OC)c2)cc1OC,inconclusive: 26.9%,–,–
Nc1nc(CSCc2ccccc2)nc(N2CCOCC2)n1,–,"inconclusive: 29.1 µM [activator, single point]",–
O=C(COC(=O)C1CCC1)Nc1ccccc1Sc1ccccc1,inconclusive: 21.5%,–,–
COc1ccc(Nc2nc3c(C)cccn3c(=O)c2C=O)cc1,inconclusive: -65.6%,–,–
CCOc1ccccc1N1CCN(Cc2ccc(OC)c(OC)c2OC)CC1,inconclusive: -27%,–,–
NC(=O)N(N)c1nc(N2CCCC2)nc(N2CCCC2)n1,–,"inconclusive: 29.1 µM [activator, partial curve, poor fit]",–
CCOCCCN(C(=O)c1snc(C(N)=O)c1N)C(C(=O)NC1CCCC1)c1ccc(O)cc1 (stereo not given),–,"inconclusive: 0.326 µM [falling, full curve, poor fit]",–
COc1ccc(C(=O)N2CCN(C(=O)C3COc4ccccc4O3)CC2)cc1OC (stereo not given),–,"inconclusive: 16.4 µM [activator, single point]",–
CC(C)c1ccc(CNc2ccc(N3CCOCC3)cc2)cc1,inconclusive: 28%,–,–
CCOC(=O)c1cccc(NC(=O)CCn2nc(C)c(S(=O)(=O)N3CCCCC3)c2C)c1,inconclusive: -100%,–,–
COc1ccc(N2CC(C(=O)NCCc3ccc(Cl)cc3)CC2=O)c(OC)c1 (stereo not given),inconclusive: 27.7%,–,–
COc1ccccc1NC(=O)c1ccc(N)cc1,inconclusive: 19.8%,–,–
O=C(NNc1nc2c(F)cccc2s1)C1COc2ccccc2O1 (stereo not given),–,–,inactive [at 46.1 µM]
COc1cc2c(cc1OC)-c1c(OC)c(OC)cc3ccnc(c13)C2=O,inconclusive: -30.1%,–,–
Cc1ccccc1OC/C(O)=C(\C#N)c1nc2ccccc2[nH]1,inconclusive: -12.8%,–,–
CCOc1ccc(S(=O)(=O)Nc2ccc(OC)nc2)cc1,inconclusive: -21.5%,–,–
CCOC(=O)c1c(S(=O)(=O)NCC(=O)Nc2cc(C)ccc2C)c(C)n(C)c1C,inconclusive: -160%,–,–
CC(NC(=O)C(c1ccccc1)c1ccccc1)c1ccc(S(N)(=O)=O)cc1 (stereo not given),–,"inconclusive: 29.1 µM [falling, single point]",–
Cc1cc(C)n(-c2ccc(C(=O)Nc3ccc(C)c(S(=O)(=O)N(C)C)c3)cc2)n1,–,"inconclusive: 23.1 µM [falling, partial curve]",–
CCOc1ccc(CN(C)C(=O)CNC(=O)c2cc(OC)c(OC)c(OC)c2)cc1,inconclusive: 14.6%,–,–
CCOC(=O)c1sc(N2C(=O)C(O)=C(C(=O)c3ccco3)C2c2cccc([N+](=O)[O-])c2)nc1C (stereo not given),–,"inconclusive: 29.1 µM [activator, single point]",–

Structure (SMILES),"lipid storage change, negative = inhibition",Potency,outcome
O=C(N/N=C1/SCC(=O)N1Cc1ccco1)c1ccccc1F,inconclusive: 31.6%,–,–
N#Cc1cc(O)c(-n2nnc3ccccc32)cc1C#N,–,"inconclusive: 5.8 µM [falling, partial curve]",–
CN(CC(=O)Nc1c(F)cccc1F)Cc1cccs1,inconclusive: 17.5%,–,–
Cc1ccc(C2(C)NC(=O)N(CC(=O)N(C)CC(=O)Nc3cccc(F)c3)C2=O)cc1 (stereo not given),–,"inconclusive: 25.9 µM [activator, single point]",–
CCOc1ccccc1NC(=O)CSc1ccc(-c2sc(C)nc2C)nn1,inconclusive: -100%,–,–
O=C1/C(=C/c2cccnc2)CCc2c1[nH]c1ccccc21,inactive: 19%,–,–
O=C(/C=C/N1CCOCC1)c1ccc(-c2ccccc2)cc1,inconclusive: 7.27%,–,–
COc1ccc(C(=O)COc2ccc(NC(C)=O)cc2)cc1,inconclusive: 24.9%,–,–
Cc1ccc(S(=O)(=O)CCC(=O)Nc2ccc3nc(C)sc3c2)cc1,inconclusive: 30%,–,–
Cc1cccc(C(=O)NCC(=O)N2CCC2)c1,inconclusive: -12.1%,–,–
COc1cccc(C2CC(=O)N3CN(c4cccc(Cl)c4C)CSC3=C2C#N)c1OC (stereo not given),inconclusive: 3.07%,–,–
COc1c2c(nc3ccccc13)OC(C(C)(O)CO)C2 (stereo not given),inconclusive: -5.06%,–,–
Cc1ccc(NC(=O)C(c2ccccc2)N2CCN(CC(=O)NC3CC3)CC2)cc1 (stereo not given),inconclusive: 25.6%,–,–
O=C(O)c1c2c(nc3ccc(F)cc13)CCC2,inactive: -2.17%,–,–
Cc1cc(=O)[nH]c(-n2[nH]c3c(c2=O)CCCC3)n1,inconclusive: -36.5%,–,–
COc1ccc(CNS(=O)(=O)NCc2ccccc2)cc1,inconclusive: 2.69%,–,–
Cc1ccc(-c2nn(C)c(=O)c3ccccc23)cc1CN1CCCCC1,inconclusive: -9.36%,–,–
COc1ccc(N2CCN(C(=O)c3cc4c(s3)-c3ccccc3OC4)CC2)cc1,inconclusive: -13.8%,–,–
CCOCCCNC(=O)COc1ccc(OC)cc1,inconclusive: -42.3%,–,–
CS(=O)(=O)N(Cc1ccco1)CC(O)Cn1c2ccccc2c2ccccc21 (stereo not given),–,"inconclusive: 16.4 µM [rising, partial curve]",–
CCOC(=O)CNC(=O)CSc1nnc(NC(=O)c2ccc3c(c2)OCO3)s1,inconclusive: 24.9%,–,–
CSc1ccccc1NC(=O)COc1nsnc1N1CCOCC1,–,"inconclusive: 29.1 µM [activator, single point]",–
COc1cc(C(=O)Nc2ccc(S(=O)(=O)Nc3cc(C)on3)cc2)cc(OC)c1OC,inconclusive: -5.9%,–,–
Cc1nc2ccccc2c(-c2ccccc2)c1C(=O)c1ccccc1,–,"inconclusive: 18.4 µM [rising, single point]",–
CCC1(C)Cc2ccccc2-c2nc3n(c(=O)c21)CC(C(=O)O)S3 (stereo not given),inconclusive: 2.71%,–,–
CC(C(=O)Nc1nnc(C2CC2)s1)N1C(=O)C2CC=CCC2C1=O (stereo not given),–,"inconclusive: 18.4 µM [activator, single point]",–

# Single records (already shown). Order of values: lipid storage change, negative = inhibition | Potency | outcome
# `CC(=O)N1CCCc2cc(S(=O)(=O)CCC(=O)N3CCN(c4ccccc4)CC3)ccc21` is listed as inconclusive: 19.1% | – | –
# `CC(C)(C)c1nc[nH]c(=O)c1Br` is listed as inconclusive: -15.8% | – | –
# `Cc1[nH]c2ccc(C(=O)N3CCCCC3)cc2c1C` is listed as inconclusive: 8.39% | – | –
